Data: PubChem BioAssay AID2685 (National Center for Advancing Translational Sciences (NCATS), 2010)
The other results are listed elsewhere or left out. Shown are side measurements of this screen, not its main read-out; they come without a call. The list favours compounds with an active or inconclusive main result. Words in brackets tell the shape of the fitted curve; partial curves, single points and poor fits give uncertain potencies.

Assay: qHTS Assay for Lipid Storage Modulators in Drosophila S3 Cells;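 on cell number change: cells counted by Cell Tracker Red CMTPX staining in the red channel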
Conditions: BODIPY lipid droplet fluorescence, 18-24 h; for cell number change: measured here: cell count max response, cells fed with added oleic acid
How it was run: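 Drosophila S3 cells got compounds at several concentrations plus oleic acid (400 uM solution). Laser-scanning cytometry with 488 nm excitation read lipid droplets at 500-530 nm and cells at 575-640 nm. Percent activity was relative to 20 uM Triacsin C.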

[1] = measured here: lipid fluorescence (Fed channel) AC50, cells fed with added oleic acid
[2] = measured here: cell number channel AC50, cells fed with added oleic acid

Row | SMILES | cell number change [%] | AC50 [1] | AC50 [2]
1 | COc1ccc(N(CN2C(=O)c3ccccc3C2=O)C(=O)COc2ccc(Cl)cc2Cl)cc1 | 8.81 | 29.1 µM [rising, single point] | –
2 | O=C(C#Cc1ccccc1)NCc1ccccc1F | -16.8 | – | –
3 | O=C(c1ccco1)N(Cc1ccc(Cl)cc1)Cc1ccco1 | -5.6 | 29.1 µM [rising, single point] | –
4 | CCOc1ccc2oc(C(=O)NCC(c3ccco3)N(C)C)c(C)c2c1 (configuration not stated) | -25.6 | 6.51 µM [falling, partial curve, poor fit] | –
5 | O=C(COC(=O)c1cn(-c2ccccc2)nc1-c1ccccc1)Nc1ncc(Cl)cc1Cl | 11.6 | 0.517 µM [rising, full curve, poor fit] | –
6 | Cc1c(NC(=O)c2ccccc2F)c(=O)n(-c2ccccc2)n1C | -18.8 | 6.51 µM [rising, single point] | –
7 | O=C(NC1=C(Nc2ccc(Cl)cc2)C(=O)c2ccccc2C1=O)c1ccccc1 | -92.5 | 3.26 µM [falling, partial curve, poor fit] | 16.4 µM [falling, partial curve, poor fit]
8 | Cc1ccc(-n2c(SCC(=O)N/N=C/c3ccccc3OCC(=O)O)nc3ccccc3c2=O)cc1 | -0.382 | 29.1 µM [falling, single point] | –
9 | Cc1ccc(N(Cc2ccccc2)C(=O)c2ccc(C)c(S(=O)(=O)N3CCOCC3)c2)cc1 | -21.1 | 0.0164 µM [falling, full curve] | –
10 | O=C(c1cnccn1)N1CCN(S(=O)(=O)c2ccc3ccccc3c2)CC1 | – | 0.13 µM [rising, full curve, poor fit] | 0.517 µM [rising, full curve]
11 | O=C(NCc1ccc2c(c1)OCO2)C1Cc2ccccc2CN1C(=O)c1ccco1 (configuration not stated) | -17.3 | 0.291 µM [falling, full curve, poor fit] | –
12 | Cc1cc(C)n(-c2ccc(C(=O)OCC(=O)NCc3ccc(F)cc3)cc2)n1 | 14.7 | 18.4 µM [rising, partial curve, poor fit] | –
13 | COCCCNC(=O)c1cc(-c2cccnc2)nc2ccccc12 | 1.42 | – | –
14 | CC12CCC(C(=O)N(CC(O)CN3CCN(Cc4ccccc4)CC3)C1=O)C2(C)C (configuration not stated) | -15.7 | 32.6 µM [falling, single point] | –
15 | Cc1sc2nc(C(C)Sc3nnc(C)n3-c3ccccc3)[nH]c(=O)c2c1C (configuration not stated) | -5.6 | 0.231 µM [falling, full curve, poor fit] | –
16 | CN1CCN(C(=O)Cn2c(C(F)(F)F)nc3ccccc32)CC1 | -99 | – | 29.1 µM [falling, single point]
17 | COc1ccc(N(C(=O)c2ccn[nH]2)C(C(=O)NC2CCCC2)c2ccc(F)cc2)cc1 (configuration not stated) | -12.7 | 29.1 µM [rising, single point] | –
18 | COc1ccc(Cn2nnnc2C(c2ccncc2)N2CCOCC2)cc1 (configuration not stated) | -176 | 6.51 µM [falling, single point] | 14.6 µM [falling, partial curve]
19 | Cc1cc(N2CCN(c3ccccn3)CC2)n2c(nc3ccccc32)c1C#N | 14.1 | 2.06 µM [rising, single point] | –
20 | Cc1ccc(C)c(OCc2ccc(C(=O)Nc3ccc([N+](=O)[O-])cn3)o2)c1 | -0.251 | 1.84 µM [rising, partial curve] | –

Row | SMILES | cell number change [%] | AC50 [1] | AC50 [2]
21 | O=C(O)CCCCCn1c(SCC(=O)c2ccc(O)c(O)c2)nc2ccsc2c1=O | 3.69 | 0.461 µM [falling, single point] | 0.366 µM [falling, partial curve, poor fit]
22 | Cn1nc(C(=O)NCCc2ccc(S(N)(=O)=O)cc2)c2c1-c1ccccc1S(=O)(=O)C2 | -6.75 | – | –
23 | NC(=O)c1cc2cc(Cl)ccc2o/c1=N/NC(=O)c1cccs1 | – | 0.517 µM [rising, full curve, poor fit] | –
24 | CCOC(=O)CNC(=O)CSc1nc(NCc2ccccc2)nc(N(C)C)n1 | – | 3.66 µM [rising, partial curve] | 2.59 µM [rising, partial curve]
25 | CCOC(=O)C1=C(COC(=O)c2cccs2)NC(=O)NC1C (configuration not stated) | 3.03 | – | 0.0731 µM [falling, partial curve, poor fit]
26 | CC(C)c1ccc(NC(=O)c2ccc(NS(C)(=O)=O)cc2)cc1 | -3.49 | – | –
27 | C=C(C)c1cccc(C(C)(C)NC(=O)Nc2ccccc2OCC)c1 | – | 23.1 µM [falling, partial curve, poor fit] | 1.3 µM [rising, partial curve]
28 | CC(OC(=O)c1ccccc1O)C(=O)Nc1ccc(Cl)cn1 (configuration not stated) | -7.78 | 0.103 µM [rising, single point] | –
29 | CCC(CO)NC(=O)c1ccc(-c2nn(C)c(=O)c3ccccc23)cc1 (configuration not stated) | 24.4 | 29.1 µM [rising, single point] | –
30 | COc1ccc(OCc2cn3c(C)cc(C)nc3n2)cc1 | 20.2 | 9.2 µM [rising, partial curve] | –
31 | CN1CCN(C(=O)c2cnn(-c3ccccc3)c2NC(=O)c2ccccc2F)CC1 | – | – | 4.61 µM [falling, single point]
32 | O=C(CSc1nnc(-c2c[nH]c3ccccc23)o1)N1CCCCC1 | 3.76 | 0.731 µM [rising, full curve, poor fit] | –
33 | N#Cc1ccc(CN2CCN(C(=O)CNC(=O)Cc3cccc4ccccc34)CC2)cc1 | 73.1 | – | 1.84 µM [rising, partial curve]
34 | CCCCn1c(N)c(N(CC(C)C)C(=O)CCCSc2nncs2)c(=O)[nH]c1=O | -22 | 5.8 µM [falling, partial curve, poor fit] | –
35 | CC1CCc2nn(CC(=O)Nc3c(F)cc(F)cc3Br)cc2C1 (configuration not stated) | 22.8 | 29.1 µM [rising, single point] | –
36 | OC(COCc1ccccc1)CN1CCCC1 (configuration not stated) | – | 0.206 µM [falling, full curve, poor fit] | 6.51 µM [falling, single point]
37 | O=C1c2ccccc2C(=O)c2c1cccc2-n1nnc2ccccc21 | 11.9 | 0.517 µM [rising, full curve, poor fit] | –
38 | Cc1cc(C(=O)N/N=C/c2cccc([N+](=O)[O-])c2)c(C)o1 | 47.1 | – | 6.51 µM [rising, partial curve]
39 | CCCn1c(=O)c(F)cn(Cc2ccc(OC)c([N+](=O)[O-])c2)c1=O | 7.76 | – | –
40 | COc1ccc(C(=O)C2CCCN(C(=O)Cn3nc(C)cc3C)C2)cc1F (configuration not stated) | 24.3 | 6.51 µM [rising, partial curve] | –

An excerpt from above in order of number of heavy atoms, high to low:
Row | SMILES | cell number change [%] | AC50 [1] | AC50 [2]
17 | COc1ccc(N(C(=O)c2ccn[nH]2)C(C(=O)NC2CCCC2)c2ccc(F)cc2)cc1 (configuration not stated) | -12.7 | 29.1 µM [rising, single point] | –
11 | O=C(NCc1ccc2c(c1)OCO2)C1Cc2ccccc2CN1C(=O)c1ccco1 (configuration not stated) | -17.3 | 0.291 µM [falling, full curve, poor fit] | –
35 | CC1CCc2nn(CC(=O)Nc3c(F)cc(F)cc3Br)cc2C1 (configuration not stated) | 22.8 | 29.1 µM [rising, single point] | –

Further entries:

Row | SMILES | cell number change [%] | AC50 [1] | AC50 [2]
41 | CC1CSc2nnc(CCc3ccccc3)n21 (configuration not stated) | -3.09 | 29.1 µM [falling, single point] | –
42 | COc1ccc(NC(=O)CC2C(=O)N(c3cccc(OC)c3)C(=O)N2C2CCCCC2)cc1 (configuration not stated) | -16.2 | – | –
43 | Cn1c(-c2ccc(F)cc2)cnc1SCC(=O)N1CCCCC1 | 20 | 32.6 µM [rising, single point] | –
44 | CCOc1ccc(NC(=S)NNC(=O)CC(C)O)cc1 (configuration not stated) | -34.4 | – | –
45 | O=C(Nc1cnn(Cc2ccc(F)cc2)c1)c1cc2nc(-c3ccco3)cc(C(F)(F)F)n2n1 | 1.05 | 0.116 µM [falling, full curve, poor fit] | –
46 | COC(=O)c1ccc(NC(=O)c2ccccc2-c2ccccc2C(=O)O)cc1 | 4.31 | 0.00411 µM [falling, full curve, poor fit] | –
47 | Cc1ccc(-c2csc(NC(=O)c3ccc(F)cc3)c2C(=O)O)cc1 | 9.91 | 1.84 µM [rising, full curve, poor fit] | –
48 | CCNS(=O)(=O)c1ccc(CCC(=O)NCc2cccnc2)cc1 | 1.93 | 6.51 µM [falling, single point] | –
49 | CC(C)CN(C(=O)COC(=O)CSc1ccc([N+](=O)[O-])cc1)C1CCS(=O)(=O)C1 (configuration not stated) | – | 1.64 µM [rising, single point] | 6.51 µM [falling, single point]
50 | O=[N+]([O-])c1ccccc1CN1CCN(Cc2ccc3ccccc3c2)CC1 | 48 | – | 1.84 µM [rising, partial curve]
51 | O=C(CCN1C(=O)/C(=C/c2ccccc2Cl)SC1=S)N1CCCC1 | -29.7 | 29.1 µM [falling, partial curve, poor fit] | –
52 | Clc1ccccc1Cn1nnc(-c2cccs2)n1 | -14.1 | 9.2 µM [rising, partial curve] | –
53 | COc1ccc(CC(=O)NCc2n[nH]c(=S)n2-c2ccccc2)cc1 | -37.8 | 0.0731 µM [falling, full curve, poor fit] | 0.103 µM [falling, full curve, poor fit]
54 | Cc1ccc(S(=O)(=O)NCCc2cc3ccc(C)c(C)c3[nH]c2=O)cc1 | -4.58 | – | –
55 | Cc1occc1C(=O)Nc1cccc(Cn2cccn2)c1 | 1.63 | 16.4 µM [rising, single point] | –
56 | Cc1ccc(-n2c(CCC(=O)O)ccc2-c2cccs2)cc1 | 14.2 | – | –
57 | CCOC(=O)[C@H]1[C@H]2COc3ccc(C)cc3[C@@H]2N2C(=O)CN(Cc3ccc(Cl)cc3)C(=O)[C@@]12C | 2.89 | 0.259 µM [rising, full curve, poor fit] | –
58 | c1ccc(CCn2nnnc2CN2CCCc3ccccc32)cc1 | -26 | 4.11 µM [falling, full curve, poor fit] | 0.00517 µM [falling, full curve, poor fit]
59 | COc1ccc(-c2nc(-c3cccc(C)c3)[nH]c(=O)c2C#N)cc1 | -9.55 | 3.66 µM [falling, single point] | –
